In data set [1] the test system is Salmonella typhimurium TA98. Description: Salmonella reversion assay, TA98. The settings on record: TA98, absence of S9. The protocol: (§1) Test strains TA98 and TA100 were obtained from Bruce N. Ames (University of California, Berkley, Calif.). Mutagenicities were determined both in the absence of and in the presence of a mammalian liver S9 activating system. S9 is the 9000×g supernatant prepared from liver homogenates from Aroclor 1254 stimulated male Sprague Dawley rats. The S9 was purchased from Molecular Toxicology, Inc. (Anapolis, Md.).
(§2) Bacterial broth cultures were grown overnight at 37° with shaking in Oxoid Broth #2. For assays in the absence of S9, a 0.5 ml aliquot of 100 mM Sodium Phosphate Buffer, pH 7.4, was added to sterile 13×100 mm capped culture tubes. For assays in the presence of S9, a 0.5 ml aliquot of 10% S9 mix was added. The S9 mix consisted of 8 mM magnesium chloride, 33 mM potassium chloride, 5 mM glucose-6-phosphate, 4 mM NADP, 100 mM sodium phosphate, pH 7.4 and S9 in a concentration of approximately 1.46 mg protein/ml.
(§3) The culture tubes were placed in an ice bath and 0.1 ml of the bacterial suspension and 0.1 ml of a DMSO solution of the test compound were added. The mixture was vortexed gently and incubated at 37° for 20 minutes with shaking in a water bath. […] The revertant (mutant) colonies were counted and the background lawn was examined on all plates. […]

Data set [2] concerns Salmonella typhimurium ATCC 14028. Nature of the data set: Effect on viability of Salmonella in suspension (Tables D-1 to D-3). The class given is cell-based. The settings on record: Salmonella enterica, read-out: EC50 (±SD), effect on viability in suspension. On the procedure:
EC50 values for four of the compounds were calculated from the bactericidal activity of the compounds as a function of molar concentration by a nonlinear regression algorithm.
In addition to the quaternary ammonium compounds, the antimicrobial activities of chelating agents Na2 -EDTA and EGTA were investigated. Na2 -EDTA was purchased from the Sigma Chemical Company (St. Louis, Mo.). Na2 -EDTA was dissolved in 0.04 M PPB prior to the assay and further dilutions were made in the same buffer.
EGTA was purchased from the Aldrich Chemical Company (Milwaukee, Wis.). EGTA was dissolved in 0.04 M PPB according to the procedure described by Harafuji and Ogawa (J. Biochem. 87:1305-1312 (1980)). After heating EGTA for 15 minutes at 80° C., the pH was adjusted to 7.0 by addition of NaOH. EGTA was filter-sterilized using a 0.2 μm Acro disc filter (Gelman Sciences; Ann Arbor, Mich.) prior to the assay. Further dilutions were made in sterile PPB.

Data set [3] concerns adherent S. typhimurium. As to conditions: 50 μg/ml.
For data set [4], the system named is Salmonella typhimurium TA100. Nature of the data set: Salmonella reversion assay, TA100. As to conditions: TA100, absence of S9. On the procedure: as §1, §2, §3
In data set [5] the test system is Salmonella typhimurium ATCC 14028 attached to human buccal epithelial cells. Nature of the data set: microbe, parasite or virus in culture. The data set is classed as cell-based. The settings on record: Salmonella enterica, Epithelial cell. On the procedure: Additional studies on the detachment of Salmonella typhimurium from human buccal epithelial cells were conducted. In this study, CPC, DPC, and HTMAB, TTMAB DTMAB, were evaluated.
S. typhimurium ATCC 14028 was grown in nutrient broth (BBL Microbiology system, Cockeysville, Md.) for 16 hours at 37° C. The cells were centrifuged and washed twice with 0.008 M phosphate buffered saline (PBS, at pH 7.2) at 4500 rpm for 10 minutes. The last suspension was diluted in PBS to obtain a cell concentration 0.5 to 1×10^9 cells/ml using spectrophotometric measurement. Human epithelial cells were obtained by swabbing the buccal surface of a healthy, nonsmoking donor. […] The number of living cells was estimated and the suspension was diluted to 0.5 to 1×10^5 cells/ml.
The suspension of the human buccal cells was mixed with an equal volume of the bacterial suspension (3.0 ml), or PBS (0.8 ml) in 10 ml Erlenmeyer flasks. Contact was allowed for 1.5 hours at 35° C. under agitation. After incubation, 1.0 ml of each suspension was transferred into an Eppendorff vial, centrifuged at 3000 rpm for 10 minutes, and washed with PBS. […]
EC50 represents the inverse measurement of the potency of a compound. EC50 values were determined by a nonlinear regression of the detachment effect versus the cationic surfactant concentration data from Table A-3.

Data set [6] deals with Salmonella typhimurium ATCC 14028. Nature of the data set: Minimum growth inhibitory concentration, macrodilution. The class given is cell-based. As to conditions: Mueler Hinton broth, macrodilution (NCCLS). On the procedure: Minimum growth inhibitory concentrations (MICs) of quaternary ammonium compounds and Na2 -EDTA for Salmonella were determined using Mueler Hinton broth (BBL Microbiology system, Cockeysville, Md.) and by the macrodilution method established by the National Committee for Clinical Laboratory Standards (NCCLS). Escherichia coli ATCC 25922 and Staphylococcus aureus ATCC 29213 were included in each assay as reference strains.

For data set [7], the system named is Salmonella attachment to human buccal epithelial cells. Description: microbe, parasite or virus in culture. As to conditions: Epithelial cell, read-out: contamination prevented.
In data set [8] the test system is adherent S. typhimurium. Description: microbe, parasite or virus in culture. As to conditions: Salmonella enterica, 10 min, read-out: adherent cells inactivated.

Each structure is given as a SMILES string. Where “and” joins values, the source holds several entries; their conditions need not be identical. Equal entries are not always repeated.

One may read the EC50 as the concentration needed to bring the measured effect to its halfway point. For orientation: MIC means the smallest concentration in the dilution series that meets the test's criterion for growth inhibition. Take `CCCCCCCCCCCCCCCC[n+]1ccccc1` [CPC, cetylpyridinium chloride]: the “concentration producing a bactericidal response” value in data set [1] and in data set [4] was “above 10 μg/plate” throughout. Moreover, the concentration giving a half-maximal response (EC50) in data set [2] was determined as 42.7 ± 0.3 µM; in data set [5] (read-out: EC50 (±SD), detachment) it was 18.1 ± 3.6 µM. In data set [3], the “decrease in the number of Salmonella microcolonies” value is listed as 31/2. For the same compound, the minimal effective concentration in data set [5] (read-out: active concentration, detachment) was found to be 5 µg/mL. Also, the minimal inhibitory concentration (MIC) in data set [6] was 40 µg/mL and 50 µg/mL; in data set [6] (Salmonella enterica), 64 µg/mL. Also, the inhibition at 10 µg/mL in data set [7] was about 65%. Besides, in data set [8], the killing at 50 µg/mL amounted to 99.8%.

These data come from patent US5366983A, “Use of quaternary ammonium compounds to remove salmonella contamination from meat products” (The Board of Trustees of The University of Arkansas, priority 1992, dated 1994).
